Two molecules from publication PMC3764795 can be followed below.

For assay [1], the target named is T1, GST-tagged cytosolic PRRG4 (GST-PRRG4cyto) (human) (UniProt Q9BZD6).
T1 sequence: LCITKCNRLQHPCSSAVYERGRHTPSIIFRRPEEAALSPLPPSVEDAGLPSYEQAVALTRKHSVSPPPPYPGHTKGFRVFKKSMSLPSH
Briefly: pull-down; GST pulldown with GST-PRRG4cyto (wild type or mutant) or GST only made in E. coli; overexpressed or endogenous proteins of cells; Western blot with anti-FLAG or antibodies against the interacting proteins; only the target purified. For orientation: In western blotting, separated proteins are transferred to a membrane and probed.

The next assay addresses T2, GST-PRRG4 Y207A (human) (UniProt Q9BZD6).
T2 sequence: T1 sequence with Y70A
The description is as above.

A further assay concerns the target FLAG-tagged MAGI-1. Briefly: co-IP; cytosolic PRRG4 co-expressed with FLAG-tagged proteins in HEK293; anti-FLAG immunoprecipitation from lysates, immunoblot with anti-PRRG4.

Positions count from the first letter of the chain named. No constants are given. Whether binding was seen depends on the method and setting. In cells and extracts the contact can be indirect. Binding calls can cover weak binding; strength is not graded here. For part of these data: Where a sequence is shown, tags or fusion partners need not be part of it.

As for FLAG-tagged MAGI-1, the binding entry (in assay [1]; in the assay with GST-PRRG4 Y207A (human)) was “binds” in each case.

B1: Cytosolic PRRG4 in a mammalian expression vector (domain or fragment, UniProt Q9BZD6 138-226)
chain: T1 sequence
Regarding B1, the binding entry with FLAG-tagged MAGI-1 is listed as “binds”.
